Reference: PMC6393296
The exact form of at least one protein or probe is not confirmed. Weaker means in comparison with the reference protein, sequence or condition of that experiment.

System: Mlh1 (WT, FLAG) + Pms1 (WT)
Test: filter binding
Settings: 1 mM ATP, 2 mM Mg2+, reduced vs no ATP, Filter binding: 20 mM Tris-HCl pH 7.5, 20 mM NaCl (25 mM in legends), 0.01 mM EDTA, 2 mM MgCl2, 40 ug/ml BSA, 0.1 mM DTT, 15 nM DNA, 30 C, 10 min, recombinant protein, protein details: FLAG inserted at position 499, label: 5'-32P on AO3142

## GGGTCAACGTGGGCAAAGATGTCCTAGCAAGTCAGAATTCGGTAGCGTG (double strand) [49-bp homoduplex AO3142/AO3144]
  binding result: binds more weakly
